Reference: PMC5803261
These are yes or no findings as the source states them, for the method shown. Binding seen in cells or lysates may run through a third protein. Binding can be weak; no strength is given.

Protein sequences, listed by entry. Tags and fused reporters are not part of them.
UniProt P31749: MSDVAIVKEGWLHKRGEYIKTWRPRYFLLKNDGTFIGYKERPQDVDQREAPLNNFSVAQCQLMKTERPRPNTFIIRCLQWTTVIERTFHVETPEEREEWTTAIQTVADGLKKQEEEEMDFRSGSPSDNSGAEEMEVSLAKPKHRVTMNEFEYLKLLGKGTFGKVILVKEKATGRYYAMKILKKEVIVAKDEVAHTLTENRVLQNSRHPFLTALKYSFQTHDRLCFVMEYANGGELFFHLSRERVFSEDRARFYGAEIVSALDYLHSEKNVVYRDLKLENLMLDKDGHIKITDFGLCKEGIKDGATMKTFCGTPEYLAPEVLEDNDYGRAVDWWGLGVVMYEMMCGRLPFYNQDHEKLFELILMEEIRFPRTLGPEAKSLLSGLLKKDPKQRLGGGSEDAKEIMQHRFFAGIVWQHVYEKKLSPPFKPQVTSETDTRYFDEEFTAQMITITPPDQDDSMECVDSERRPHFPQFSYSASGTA

Target: GST-radixin (expressed in HEK293T) (rat) (UniProt E9PT65)
Assay: pull-down; HEK293T cells co-transfected with GST-radixin and GFP-USP14 or GFP; serum-starved, EGF (50 ng/ml) for 15 minutes; GST pulldown of lysates

binding: binds
Substance: Akt found in the GST-radixin pull-down from HEK293T cells (from UniProt P31749 1-480)
